Measurements as given in article PMC7411624.
These are yes or no findings as the source states them, for the method shown. In cells and extracts the contact can be indirect. A yes stands for co-enrichment or nearness to the bait. Other partners may have been found.

Target: V5-tagged Ae. aegypti Dicer 2 (Dcr2) (Ae. aegypti) (UniProt Q49LL4)
Assay: affinity purification with mass spectrom

B1: Argonaute 2 (Ago2), endogenous in Aag2 cells (protein, UniProt C5J0H4 1-992)
chain: MILNARYLYIPCRQKQQQQQQQPQQQQQHQQKQQSQQQQQQQQQQQRSKEQGSQQQQRPQQQAQQQQPSQQQQQSQKQQHPQQQQQQRPQKQQQQFQQDQRPQQQQQQLQKQQQQQGQSWRPQSHDPSPASGSHSHSSSPSHAAALERVEEDFSKIKIDKQKIHSSALLPVLMRPNAHGTRGRAIKVEVNYIQLLLERLIPTAYHYDVDIQPAASRKWQRLAFSEFTKQMFPNHGFAFDGHKNAYAARRLQADVYEQEVKVRDEGRERRFKVAMKEAAVLDMTCLKTYMNNGSTLDKPMSAIQCLDIVLRTAYENNPRFIKFKKSIYVKPDRPDDIGSNHELWYGLFQSALLGARPFLNIDVSHKAFPTGGPVLRILVDMNRGQVPDRVTDWMSRDLHDFLKGMELSYTGPDGVSKLFKYNSIKSPANQQKFKLENGTEMTIDQYFRSKNKQLRYPSLPVLHVGSLVRNVMLPIELCSIPPGQALNKKHPDQCTQFIIRKSATDTATRKRKIMDLFNQIGYNNAPTIKEFGVSVGNNFETVDGRILDPPELSYRNDRRVKPMRGVWRADNMNFIIPSTEITRRELSWTILNLDGRTRPDAIDEFGRNIYQMSLKQGVQLQQFSMKNNFYEPRDMRFAVKDLDNIFDELKKRKIDLVFVVIPSPGRDGDVYAKVKQKAELCVGLLTQCIKSFTLDKKRGDMSTISNIWLKINAKTNGSNHVLAKNFKPPIARKTVMYVGADVTHPSPEQTNIPSVVGVAASYDLEGFRYNCCYRLQGPKDEMIRDLQNIVIKQLRQFKQTNQSLPELIMYYRDGVSEGQFQEVLTIELRAMQAAAASVQQGYKPNITFIVVQKRHHARFFPTANCPTEGRNNNVQPGTIVDRYITAPNQYQFFLVSHAAVQGVAKPTKYCVLYDDENCNPDQLQALTYYLCHMFTRCNRAVSYPAPTYYAHLAAYRGRVYIKDRPLNMNNLTKEYERMQIRTEIQDGHPMFFV
With B1 the binding was “binds”.
